Source: US12618050B2, “Engineered polypeptides that exhibit increased catalytic efficiency for unnatural cofactors and uses thereof” (The Regents of the University of California, priority 2018, dated 2026)
Residue numbers refer to the chain shown, from its start. Numbers in names are those of the source. Where “and” joins values, the source holds several entries; their conditions need not be identical. Equal entries are not always repeated. At least one read-out could not be matched to a standard name with certainty.

B1: I195R-A93K-Y39Q: Bs GDH with I195R, A93K, Y39Q substitutions (SEQ ID NO:6) (protein)
chain: MYPDLKGKVVAITGAASGLGKAMAIRFGKEQAKVVINYQSNKQDPNEVKEEVIKAGGEAVVVQGDVTKEEDVKNIVQTAIKEFGTLDIMINNKGLENPVPSHEMPLKDWDKVIGTNLTGAFLGSREAIKYFVENDIKGNVINMSSVHEVIPWPLFVHYAASKGGIKLMTETLALEYAPKGIRVNNIGPGAINTPRNAEKFADPKQKADVESMIPMGYIGEPEEIAAVAAWLASKEASYVTGITLFADGGMTQYPSFQAGRG
modifications: I195R A93K Y39Q mutant GDH coding sequence
B2: I195R: Bs GDH, same sequence as SEQ ID NO:1 except I195R (SEQ ID NO:2) (protein)
chain: B1 chain with Q39Y, K93A
modifications: I195R mutant GDH coding sequence
B3: I195R-A93K-Y39Q-S17E: Bs GDH with I195R, A93K, Y39Q, S17E substitutions (SEQ ID NO:7) (protein)
chain: B1 chain with S17E
modifications: I195R A93K Y39Q S17E mutant GDH coding sequence

assay: GDH enzymatic assay with NMN^+ as cofactor; assay type: biochemical
Experimental: (§1) GDH enzymatic assays. The GDH activity was measured as described in Hilt et al. (Biochimica et biophysica acta 1076(2):298-304 (1991)). The reactions were started by adding the purified protein to the assay mixture containing 35 mM Tris-HCl buffer (pH 8.0), 3 mM NAD^+, NADP^+ or NMN^+ and 140 mM glucose. The absorbance variation at 340 nm was detected by a spectrophotometer at 25° C.

Molecule	kcat/KM
B1	~510 M⁻¹ s⁻¹ and 510 ± 63 M⁻¹ s⁻¹
B2	120 ± 21 M⁻¹ s⁻¹
B3	210 ± 20 M⁻¹ s⁻¹

assay: GDH enzymatic assay with NAD^+ as cofactor; assay type: biochemical
Experimental: as §1

Molecule	kcat/KM
B1	110 ± 21 M⁻¹ s⁻¹
B2	137000 ± 2600 M⁻¹ s⁻¹
B3	3.8 ± 0.5 M⁻¹ s⁻¹

assay: GDH enzymatic assay with NADP^+ as cofactor; assay type: biochemical
Experimental: as §1

Molecule	kcat/KM
B1	7500 ± 1800 M⁻¹ s⁻¹
B2	156000 ± 5500 M⁻¹ s⁻¹
B3	11 ± 8 M⁻¹ s⁻¹
